According to PubChem BioAssay AID485314 (National Center for Advancing Translational Sciences (NCATS), 2010):
Out of some 340,000 compounds screened, about 4,500 (1.3%) were called active. Inconclusive results, whose numbers are uncertain, are shown with a selection of clear calls. The call rests on the fitted dose curve; in most records, active means well fitted inhibition curve with a large enough effect; inconclusive means small, poorly fitted or top-dose-only effect, or another doubt; inactive means no such curve, though single readings can be large or run the other way. A potency beside an inconclusive call is a rough fit, not a confirmed value.

Molecular target: DNA polymerase beta (Homo sapiens) (UniProt P06746)
Test: qHTS Assay for Inhibitors of DNA Polymerase Beta
Settings: Pol beta primer extension/strand displacement, fluorescence kinetic; activity change, negative = inhibition: at 114 µM (top of the series)
In short: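 10 nM enzyme + cpd, 15 min RT; start with substrate 50 nM final; read 0 min and after 10 min RT. Corrected, normalized data; 4-parameter Hill curve fit.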
On the % scale 0 is the no-effect control and ±100 the full control effect; potency means the concentration at half of the fitted maximal effect.

SMILES | activity change, negative = inhibition | Potency
O=S(=O)(Nc1nccs1)c1cc(Cl)ccc1Cl | inactive: -1.75% | 
COc1cc(Cl)c(C)cc1NC(=O)c1ccccc1NC(=O)CN1CCOCC1 |  | inconclusive: 70.8 µM [inhibitor, partial curve]
Cc1ccc(NC(=O)Nc2nc3c(s2)CCCCCC3)cc1C |  | inconclusive: 100 µM [inhibitor, single point]
Cc1ccc2c(c1)cc(C(=O)NCc1ccc(F)cc1)n2C |  | inconclusive: 89.1 µM [inhibitor, single point]
COc1ccccc1N1CCN(S(=O)(=O)c2cc(-c3cc(C)no3)ccc2C(C)C)CC1 | inconclusive: -35% [inhibitor] | 
CCOC(=O)C1CCCN(C(=O)c2ccc(CS(=O)(=O)c3ccc(Br)cc3)o2)C1 (configuration not stated) |  | inconclusive: 89.1 µM [inhibitor, single point]
COc1cccc(CNC(=O)CSc2nc3ccccc3nc2Cc2ccccc2)c1 | inactive: 0.371% | 
Cc1nnc(N2CCC(C(=O)NCc3ccc(F)cc3)CC2)c2nn(-c3ccc(Cl)cc3)c(C)c12 |  | active: 79.4 µM
Cc1ccc(N2CSC3=C(C#N)C(c4cccs4)CC(=O)N3C2)cc1 (configuration not stated) |  | inconclusive: 20 µM [inhibitor, full curve]
OC(CN1CCCCC1)Cn1c2ccccc2c2ccccc21 (configuration not stated) |  | inconclusive: 89.1 µM [inhibitor, single point]
CCCCc1c(C)nn(-c2nnc3c4ccccc4n(CC)c3n2)c1C |  | inconclusive: 39.8 µM [inhibitor, partial curve, poor fit]
COc1ccccc1Nc1nn2c(=O)c3ccc(C(=O)NC4CCC(C)CC4)cc3nc2s1 (configuration not stated) | inactive: 0.22% | 
CCC(C)N=C1Sc2nc3ccc(C)cc3cc2CN1CCOC (configuration not stated) | inactive: 4.03% | 
COc1cccc(CNc2ncnc3c2nnn3C)c1 | inactive: 11.7% | 
O=C1N/C(=N/NC(=O)c2cccc3ccccc23)S/C1=C\c1ccccc1OCc1ccccc1 |  | active: 50.1 µM
CCN(C(=O)CSc1nc(-c2ccccc2)no1)c1cccc(C)c1 |  | inconclusive: 31.6 µM [inhibitor, single point]
Cn1nc2c(c1C(=O)O)CCCC2 |  | inconclusive: 20 µM [inhibitor, full curve]
CCc1ccc(C2=C(C)C(N3CCC(C(=O)Nc4ccc(F)cc4)CC3)=NS2(=O)=O)cc1 |  | active: 22.4 µM
Cc1cc2ccccc2n1CCNC(=O)c1ccccc1F | inactive: -6.53% | 
CCCCn1c(SCC(=O)NC2CCS(=O)(=O)C2)nc2ccccc2c1=O (configuration not stated) |  | inconclusive: 0.158 µM [inhibitor, full curve, poor fit]
Cc1ccc(N2C(=O)[C@@H]3C(C(=O)C(c4ccccc4)c4ccccc4)=NN[C@@H]3C2=O)cc1 |  | inconclusive: 70.8 µM [inhibitor, single point]
COc1ccc(-c2cc(C(=O)Nc3ccc(S(=O)(=O)Nc4onc(C)c4C)cc3)c3ccccc3n2)cc1 |  | inconclusive: 79.4 µM [inhibitor, single point]
Cn1cc(S(=O)(=O)N2CCCCCC2)cc1C(=O)N1CCN(c2ccc(Cl)cc2)CC1 |  | inconclusive: 89.1 µM [inhibitor, single point]

SMILES | activity change, negative = inhibition | Potency
O=C1CCC/C1=C/Nc1ccc2c(c1)OCO2 |  | active: 25.1 µM
Oc1nc(Nc2cccc(Cl)c2)sc1/C=C1\C=Nc2ccccc21 |  | inconclusive: 20 µM [inhibitor, single point]
Cc1ccc(C)c(NC(=O)Cn2nnc(C(=O)NCc3ccco3)c2N)c1 |  | inactive
CCC1CN(C(=O)N2CCC(C(=O)NCc3ccc(F)cc3)CC2)c2ccccc2O1 (configuration not stated) |  | inconclusive: 11.2 µM [inhibitor, single point]
CCn1c2ccccc2c2cc(/C=N/O)ccc21 |  | inconclusive: 89.1 µM [inhibitor, single point]
Cc1cccc(C)c1NC(=O)C1NC(=O)CC1c1ccccc1 (configuration not stated) | inactive: -0.569% | 
COc1ccc(C(=O)Nc2ccc(S(=O)(=O)N3CCCCC3)cc2)cc1OC |  | inconclusive: 89.1 µM [inhibitor, single point]
CCN(c1ccccc1)S(=O)(=O)c1ccc(NCC2COc3ccccc3O2)nc1 (configuration not stated) |  | inconclusive: 25.1 µM [inhibitor, full curve, poor fit]
O=C(O)CCc1ccc(-c2ccccc2)n1-c1cccc(Br)c1 |  | inconclusive: 0.1 µM [inhibitor, full curve]
O=C1c2ccccc2NC(c2ccc(-c3cccc(Cl)c3)o2)N1O (configuration not stated) | inactive: 1.84% | 
COc1cc(/C=C/c2nc(C#N)c(NC(C)c3ccccc3)o2)cc(OC)c1OC (configuration not stated) |  | inconclusive: 15.8 µM [inhibitor, full curve, poor fit]
CC(C)c1nc(SCC(=O)Nc2nccs2)c2ccccc2n1 |  | active: 25.1 µM
CN(Cc1ccco1)S(=O)(=O)c1ccc2c(c1)CCN2C(=O)CCC(=O)O |  | inconclusive: 100 µM [inhibitor, single point]
CCC(=O)Nc1ccc(C(=O)Nc2cccc(C)n2)cc1 |  | inconclusive: 39.8 µM [inhibitor, single point]
O=C(CCCN1C(=O)/C(=C/c2ccco2)SC1=S)Nc1cccc(C(=O)O)c1 |  | active: 3.16 µM
COc1ccccc1N=C1SC(C(=O)Nc2cccc(Cl)c2Cl)C(N)=C1C(N)=O (configuration not stated) |  | inconclusive: 89.1 µM [inhibitor, single point]
CC(=O)Nc1ccc(NC(=O)CSc2ccc(-c3cccnc3)nn2)cc1 |  | inconclusive: 89.1 µM [inhibitor, single point]
Cn1nnnc1SCCNCc1ccccc1OCc1ccccc1 |  | active: 28.2 µM
NC(=O)c1ccc(NC(=O)Cc2cccs2)cc1 |  | active: 39.8 µM
O=C(Nc1cccnc1)C1CC(=O)N(c2ccc(F)cc2)C1 (configuration not stated) | inactive: 0.571% | 
O=c1c(Cl)c(O)c2cccc3c4ccccc4n1c23 |  | inconclusive: 79.4 µM [inhibitor, single point]
Cc1cc2c(cc1S(=O)(=O)N(C)Cc1ccccc1)n(C)c(=O)c(=O)n2C |  | inconclusive: 0.141 µM [inhibitor, full curve, poor fit]
COc1ccc(Oc2nc3c(c(=O)n(Cc4ccccc4Cl)c(=O)n3C)n2C)cc1 |  | inconclusive: 79.4 µM [inhibitor, single point]

Reformatted in markdown: 2 of the compounds above

| SMILES | activity change, negative = inhibition | Potency |
| --- | --- | --- |
| Cc1cc2ccccc2n1CCNC(=O)c1ccccc1F | inactive: -6.53% |  |
| Cc1ccc(C)c(NC(=O)Cn2nnc(C(=O)NCc3ccco3)c2N)c1 |  | inactive |

(more compounds)

SMILES | activity change, negative = inhibition | Potency
O=C(COc1ccccc1-c1ccccc1)N/N=C/c1cccc2ccccc12 |  | inconclusive: 25.1 µM [inhibitor, single point]
O=C(C1CC1)N1CCc2cc(Br)cc(S(=O)(=O)N3CCN(c4ccccc4F)CC3)c21 |  | inconclusive: 5.01 µM [inhibitor, full curve, poor fit]
Cc1ccc(-c2nnc(Nc3ccc(O)cc3)c3ccccc23)cc1S(=O)(=O)NCC1CCCO1 (configuration not stated) |  | inconclusive: 0.282 µM [inhibitor, full curve, poor fit]
CC(C)n1c(=O)c2oc3ccccc3c2n(Cc2ccccc2F)c1=O |  | inconclusive: 0.562 µM [inhibitor, full curve, poor fit]
Cc1ccc([N+](=O)[O-])cc1NC(=O)CN(C(=O)c1ccc(Cl)cc1)C1CCCCC1 |  | inconclusive: 0.126 µM [inhibitor, full curve, poor fit]
COc1ccc(NC(=O)/C(Cl)=C(/Cl)S(=O)Cc2ccc(Cl)cc2)cn1 (configuration not stated) |  | inconclusive: 44.7 µM [inhibitor, single point]
Cc1ccc(S(=O)(=O)/N=C/c2ccc(N(C)C)cc2)cc1 |  | inconclusive: 89.1 µM [inhibitor, single point]
COc1ccccc1OCC(=O)OCC(=O)Nc1sccc1C(N)=O |  | inconclusive: 31.6 µM [inhibitor, full curve, poor fit]
Cc1cc(C(F)F)nn1CC(=O)NC1C(=O)N2C(C(=O)O)=C(CSc3nnnn3C)CSC12 (configuration not stated) |  | active: 12.6 µM
CC(C)C(=O)Nc1ccc(-c2ccc3nncn3n2)cc1 |  | inconclusive: 3.55 µM [inhibitor, full curve, poor fit]
Cc1c(CN2CCC(CO)(CCOc3ccccc3)CC2)[nH]c2c(Cl)cccc12 |  | inconclusive: 70.8 µM [inhibitor, single point]
COc1cccc(NC(=O)N2CCN(c3nnnn3-c3ccccc3)CC2)c1 | inactive: 22.4% | 
CCc1cc2c(CN3CCN(CC)CC3)cc(=O)oc2cc1O |  | inconclusive: 79.4 µM [inhibitor, partial curve]
N=C1/C(=C/c2ccc(OCc3ccccc3F)cc2)C(=O)N=C2SC(CC(=O)N3CCOCC3)=NN12 | inconclusive: -61.6% [inhibitor] | 
CCOCCCNC(=O)C1CCCN1C(=O)NC1CCCCC1 (configuration not stated) |  | inconclusive: 79.4 µM [inhibitor, partial curve]
O=C(N/N=C/c1ccc(Cl)c([N+](=O)[O-])c1)c1cc(-c2ccc3c4c(cccc24)CC3)n[nH]1 | inconclusive: -38.4% [inhibitor] | 
COc1ccc(-c2nc3scc(CCNS(=O)(=O)c4cccc(C(C)=O)c4)n3n2)cc1 |  | inconclusive: 39.8 µM [inhibitor, single point]
COc1cc(OC)c2ccc(=O)oc2c1C(CC(=O)N1CCN(c2ccccc2)CC1)c1ccc2c(c1)OCO2 (configuration not stated) |  | inconclusive: 50.1 µM [inhibitor, partial curve]
COc1cc(/C=N/Nc2nc3ccccc3[nH]2)ccc1O |  | inconclusive: 50.1 µM [inhibitor, partial curve, poor fit]
O=C(Nc1ccc(F)cc1)c1ccc2nc[nH]c2c1 |  | inconclusive: 0.631 µM [inhibitor, full curve]
COc1cccc(Oc2ccc(OC)cc2C(=O)O)c1 |  | inconclusive: 79.4 µM [inhibitor, single point]

Structures above that have a Cl atom (13):
SMILES | activity change, negative = inhibition | Potency
O=S(=O)(Nc1nccs1)c1cc(Cl)ccc1Cl | inactive: -1.75% | 
COc1cc(Cl)c(C)cc1NC(=O)c1ccccc1NC(=O)CN1CCOCC1 |  | inconclusive: 70.8 µM [inhibitor, partial curve]
Cc1nnc(N2CCC(C(=O)NCc3ccc(F)cc3)CC2)c2nn(-c3ccc(Cl)cc3)c(C)c12 |  | active: 79.4 µM
Cn1cc(S(=O)(=O)N2CCCCCC2)cc1C(=O)N1CCN(c2ccc(Cl)cc2)CC1 |  | inconclusive: 89.1 µM [inhibitor, single point]
Oc1nc(Nc2cccc(Cl)c2)sc1/C=C1\C=Nc2ccccc21 |  | inconclusive: 20 µM [inhibitor, single point]
O=C1c2ccccc2NC(c2ccc(-c3cccc(Cl)c3)o2)N1O (configuration not stated) | inactive: 1.84% | 
COc1ccccc1N=C1SC(C(=O)Nc2cccc(Cl)c2Cl)C(N)=C1C(N)=O (configuration not stated) |  | inconclusive: 89.1 µM [inhibitor, single point]
O=c1c(Cl)c(O)c2cccc3c4ccccc4n1c23 |  | inconclusive: 79.4 µM [inhibitor, single point]
COc1ccc(Oc2nc3c(c(=O)n(Cc4ccccc4Cl)c(=O)n3C)n2C)cc1 |  | inconclusive: 79.4 µM [inhibitor, single point]
Cc1ccc([N+](=O)[O-])cc1NC(=O)CN(C(=O)c1ccc(Cl)cc1)C1CCCCC1 |  | inconclusive: 0.126 µM [inhibitor, full curve, poor fit]
COc1ccc(NC(=O)/C(Cl)=C(/Cl)S(=O)Cc2ccc(Cl)cc2)cn1 (configuration not stated) |  | inconclusive: 44.7 µM [inhibitor, single point]
Cc1c(CN2CCC(CO)(CCOc3ccccc3)CC2)[nH]c2c(Cl)cccc12 |  | inconclusive: 70.8 µM [inhibitor, single point]
O=C(N/N=C/c1ccc(Cl)c([N+](=O)[O-])c1)c1cc(-c2ccc3c4c(cccc24)CC3)n[nH]1 | inconclusive: -38.4% [inhibitor] | 
